{
  "sequences": {"note": "Chains of the proteins cited; added tags and fusions are not shown. Lines headed by an entry give the natural chain unless they say otherwise; changes in a name come on top. A line that says so, or that is headed by a name, gives the form on record, which may keep a tag or linker. Residues count along the entry.", "UniProt Q02248": "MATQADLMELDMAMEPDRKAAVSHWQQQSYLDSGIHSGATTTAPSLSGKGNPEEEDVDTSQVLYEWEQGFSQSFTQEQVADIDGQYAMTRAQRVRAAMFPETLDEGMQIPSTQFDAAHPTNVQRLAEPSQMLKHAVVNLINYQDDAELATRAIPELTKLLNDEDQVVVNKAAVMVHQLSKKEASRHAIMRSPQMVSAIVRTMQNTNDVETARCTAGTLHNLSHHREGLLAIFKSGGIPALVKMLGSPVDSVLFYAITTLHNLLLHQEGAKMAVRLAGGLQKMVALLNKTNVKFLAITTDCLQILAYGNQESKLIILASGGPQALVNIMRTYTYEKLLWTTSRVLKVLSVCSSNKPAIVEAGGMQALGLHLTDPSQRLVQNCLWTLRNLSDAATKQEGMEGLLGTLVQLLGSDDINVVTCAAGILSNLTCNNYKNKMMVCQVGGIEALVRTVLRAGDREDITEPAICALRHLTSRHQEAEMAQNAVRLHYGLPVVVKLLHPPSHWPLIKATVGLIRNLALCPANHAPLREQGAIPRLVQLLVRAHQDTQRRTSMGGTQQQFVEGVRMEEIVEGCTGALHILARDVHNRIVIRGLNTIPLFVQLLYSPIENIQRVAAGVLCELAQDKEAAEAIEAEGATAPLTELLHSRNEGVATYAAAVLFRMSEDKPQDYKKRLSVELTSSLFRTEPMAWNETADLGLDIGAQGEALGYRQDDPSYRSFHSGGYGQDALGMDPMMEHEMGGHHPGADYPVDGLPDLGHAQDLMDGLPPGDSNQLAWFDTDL", "UniProt P52480": "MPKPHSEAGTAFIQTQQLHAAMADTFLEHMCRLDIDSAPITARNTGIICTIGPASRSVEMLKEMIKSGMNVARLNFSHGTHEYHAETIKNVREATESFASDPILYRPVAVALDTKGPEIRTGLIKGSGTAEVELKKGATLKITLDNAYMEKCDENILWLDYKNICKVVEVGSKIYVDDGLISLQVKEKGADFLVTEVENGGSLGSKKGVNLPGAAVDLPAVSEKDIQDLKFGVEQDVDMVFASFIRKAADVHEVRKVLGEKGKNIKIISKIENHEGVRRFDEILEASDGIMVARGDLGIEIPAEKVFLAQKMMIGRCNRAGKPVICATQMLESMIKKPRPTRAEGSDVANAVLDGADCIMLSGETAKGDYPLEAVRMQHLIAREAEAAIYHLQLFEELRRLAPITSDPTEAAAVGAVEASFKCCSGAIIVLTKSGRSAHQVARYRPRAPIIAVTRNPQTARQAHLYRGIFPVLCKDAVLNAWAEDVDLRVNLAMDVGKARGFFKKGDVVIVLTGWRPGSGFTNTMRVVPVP", "UniProt Q9Z0G0": "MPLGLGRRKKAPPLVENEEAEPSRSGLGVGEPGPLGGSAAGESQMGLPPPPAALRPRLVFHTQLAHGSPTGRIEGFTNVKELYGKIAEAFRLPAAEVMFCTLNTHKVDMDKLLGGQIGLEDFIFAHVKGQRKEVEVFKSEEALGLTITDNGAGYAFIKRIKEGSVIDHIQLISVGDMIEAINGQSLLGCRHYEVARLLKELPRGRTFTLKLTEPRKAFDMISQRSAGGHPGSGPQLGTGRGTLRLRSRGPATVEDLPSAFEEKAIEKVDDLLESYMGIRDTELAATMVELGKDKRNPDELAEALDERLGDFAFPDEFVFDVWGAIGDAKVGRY", "UniProt Q3UH93, residues 49-1925": "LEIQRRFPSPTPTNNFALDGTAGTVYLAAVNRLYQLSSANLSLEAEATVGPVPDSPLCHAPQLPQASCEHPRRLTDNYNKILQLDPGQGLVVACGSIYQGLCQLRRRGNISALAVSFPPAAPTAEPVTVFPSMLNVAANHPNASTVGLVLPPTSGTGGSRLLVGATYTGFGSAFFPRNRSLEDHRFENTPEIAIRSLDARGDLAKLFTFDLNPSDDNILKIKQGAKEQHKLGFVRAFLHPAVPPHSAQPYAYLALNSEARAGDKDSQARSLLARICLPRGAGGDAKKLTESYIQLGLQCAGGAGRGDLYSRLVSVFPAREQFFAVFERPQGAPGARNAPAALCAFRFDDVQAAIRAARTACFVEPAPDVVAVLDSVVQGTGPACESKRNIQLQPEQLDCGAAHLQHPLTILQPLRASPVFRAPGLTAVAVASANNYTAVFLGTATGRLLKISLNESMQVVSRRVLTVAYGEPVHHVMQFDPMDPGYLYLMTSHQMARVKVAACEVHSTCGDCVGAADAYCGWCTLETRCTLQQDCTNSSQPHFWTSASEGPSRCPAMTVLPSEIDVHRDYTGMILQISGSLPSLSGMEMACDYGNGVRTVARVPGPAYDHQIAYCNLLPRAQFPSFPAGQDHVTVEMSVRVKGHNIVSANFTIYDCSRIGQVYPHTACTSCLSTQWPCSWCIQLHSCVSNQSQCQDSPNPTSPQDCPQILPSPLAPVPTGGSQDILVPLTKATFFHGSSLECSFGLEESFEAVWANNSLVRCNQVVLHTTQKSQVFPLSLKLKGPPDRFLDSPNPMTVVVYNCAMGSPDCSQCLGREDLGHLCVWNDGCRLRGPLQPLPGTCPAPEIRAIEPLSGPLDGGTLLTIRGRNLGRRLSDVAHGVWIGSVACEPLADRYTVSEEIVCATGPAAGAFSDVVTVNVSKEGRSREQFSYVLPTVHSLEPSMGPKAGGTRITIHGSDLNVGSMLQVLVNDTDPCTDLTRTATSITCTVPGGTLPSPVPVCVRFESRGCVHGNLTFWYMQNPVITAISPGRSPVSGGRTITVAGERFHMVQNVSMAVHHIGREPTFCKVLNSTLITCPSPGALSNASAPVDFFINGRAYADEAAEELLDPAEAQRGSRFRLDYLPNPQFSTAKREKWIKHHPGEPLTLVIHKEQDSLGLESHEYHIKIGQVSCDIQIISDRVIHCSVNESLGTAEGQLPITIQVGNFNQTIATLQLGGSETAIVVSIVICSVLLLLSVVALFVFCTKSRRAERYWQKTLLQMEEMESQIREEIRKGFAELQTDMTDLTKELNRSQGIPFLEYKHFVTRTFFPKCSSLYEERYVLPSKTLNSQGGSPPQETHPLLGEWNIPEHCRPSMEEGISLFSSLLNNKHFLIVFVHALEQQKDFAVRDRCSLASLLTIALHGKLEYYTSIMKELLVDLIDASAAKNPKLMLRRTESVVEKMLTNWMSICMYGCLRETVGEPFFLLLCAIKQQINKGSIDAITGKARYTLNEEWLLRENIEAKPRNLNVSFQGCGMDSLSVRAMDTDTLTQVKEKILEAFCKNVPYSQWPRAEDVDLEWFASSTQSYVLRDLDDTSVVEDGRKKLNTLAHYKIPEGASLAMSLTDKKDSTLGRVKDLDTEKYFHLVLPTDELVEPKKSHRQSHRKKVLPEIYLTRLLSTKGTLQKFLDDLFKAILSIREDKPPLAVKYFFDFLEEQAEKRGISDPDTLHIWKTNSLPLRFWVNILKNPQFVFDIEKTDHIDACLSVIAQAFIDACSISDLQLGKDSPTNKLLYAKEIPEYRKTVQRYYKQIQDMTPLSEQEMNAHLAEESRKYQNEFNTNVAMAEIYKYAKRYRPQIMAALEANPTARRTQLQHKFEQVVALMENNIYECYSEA", "UniProt P49817": "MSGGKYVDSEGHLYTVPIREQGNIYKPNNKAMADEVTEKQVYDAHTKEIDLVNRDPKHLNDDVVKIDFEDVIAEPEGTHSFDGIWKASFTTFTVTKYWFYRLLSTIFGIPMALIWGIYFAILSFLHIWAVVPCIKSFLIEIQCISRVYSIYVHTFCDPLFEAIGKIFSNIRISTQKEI", "UniProt P35918, residues 20-1345": "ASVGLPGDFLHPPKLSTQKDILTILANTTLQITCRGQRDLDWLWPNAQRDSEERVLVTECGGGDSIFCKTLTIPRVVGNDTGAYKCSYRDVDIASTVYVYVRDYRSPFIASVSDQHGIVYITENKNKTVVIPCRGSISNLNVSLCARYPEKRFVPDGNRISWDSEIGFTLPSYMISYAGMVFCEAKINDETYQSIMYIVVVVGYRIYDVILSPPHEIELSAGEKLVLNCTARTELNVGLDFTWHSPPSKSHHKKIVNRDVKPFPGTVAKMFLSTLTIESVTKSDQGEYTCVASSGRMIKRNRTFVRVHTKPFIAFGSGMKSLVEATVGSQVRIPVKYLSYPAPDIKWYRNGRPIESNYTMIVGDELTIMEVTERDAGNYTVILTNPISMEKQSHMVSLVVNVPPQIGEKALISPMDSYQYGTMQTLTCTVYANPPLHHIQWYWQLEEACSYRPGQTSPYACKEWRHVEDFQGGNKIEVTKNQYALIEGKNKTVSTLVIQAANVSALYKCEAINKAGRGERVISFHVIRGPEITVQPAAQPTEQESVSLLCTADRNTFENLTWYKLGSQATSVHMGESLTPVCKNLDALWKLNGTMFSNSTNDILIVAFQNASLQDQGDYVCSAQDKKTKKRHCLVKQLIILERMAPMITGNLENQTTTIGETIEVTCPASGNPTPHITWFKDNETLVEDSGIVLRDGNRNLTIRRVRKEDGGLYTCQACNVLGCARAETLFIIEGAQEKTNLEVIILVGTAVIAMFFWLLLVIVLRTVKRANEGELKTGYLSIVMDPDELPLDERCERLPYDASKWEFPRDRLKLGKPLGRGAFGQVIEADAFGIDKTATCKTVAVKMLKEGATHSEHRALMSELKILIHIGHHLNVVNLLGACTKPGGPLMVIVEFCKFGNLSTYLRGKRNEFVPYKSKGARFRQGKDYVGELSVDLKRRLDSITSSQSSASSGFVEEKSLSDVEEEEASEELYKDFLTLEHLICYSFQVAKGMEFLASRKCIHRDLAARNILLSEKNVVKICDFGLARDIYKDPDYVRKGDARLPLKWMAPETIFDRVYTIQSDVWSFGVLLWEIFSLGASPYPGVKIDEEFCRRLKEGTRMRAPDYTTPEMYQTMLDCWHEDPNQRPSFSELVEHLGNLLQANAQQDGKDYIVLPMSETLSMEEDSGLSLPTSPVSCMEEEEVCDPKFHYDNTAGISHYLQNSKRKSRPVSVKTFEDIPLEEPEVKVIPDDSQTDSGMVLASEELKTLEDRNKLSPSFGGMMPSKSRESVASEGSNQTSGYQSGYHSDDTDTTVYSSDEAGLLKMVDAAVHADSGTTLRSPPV", "Vegr1 (Flt1) (P35969, form named)": "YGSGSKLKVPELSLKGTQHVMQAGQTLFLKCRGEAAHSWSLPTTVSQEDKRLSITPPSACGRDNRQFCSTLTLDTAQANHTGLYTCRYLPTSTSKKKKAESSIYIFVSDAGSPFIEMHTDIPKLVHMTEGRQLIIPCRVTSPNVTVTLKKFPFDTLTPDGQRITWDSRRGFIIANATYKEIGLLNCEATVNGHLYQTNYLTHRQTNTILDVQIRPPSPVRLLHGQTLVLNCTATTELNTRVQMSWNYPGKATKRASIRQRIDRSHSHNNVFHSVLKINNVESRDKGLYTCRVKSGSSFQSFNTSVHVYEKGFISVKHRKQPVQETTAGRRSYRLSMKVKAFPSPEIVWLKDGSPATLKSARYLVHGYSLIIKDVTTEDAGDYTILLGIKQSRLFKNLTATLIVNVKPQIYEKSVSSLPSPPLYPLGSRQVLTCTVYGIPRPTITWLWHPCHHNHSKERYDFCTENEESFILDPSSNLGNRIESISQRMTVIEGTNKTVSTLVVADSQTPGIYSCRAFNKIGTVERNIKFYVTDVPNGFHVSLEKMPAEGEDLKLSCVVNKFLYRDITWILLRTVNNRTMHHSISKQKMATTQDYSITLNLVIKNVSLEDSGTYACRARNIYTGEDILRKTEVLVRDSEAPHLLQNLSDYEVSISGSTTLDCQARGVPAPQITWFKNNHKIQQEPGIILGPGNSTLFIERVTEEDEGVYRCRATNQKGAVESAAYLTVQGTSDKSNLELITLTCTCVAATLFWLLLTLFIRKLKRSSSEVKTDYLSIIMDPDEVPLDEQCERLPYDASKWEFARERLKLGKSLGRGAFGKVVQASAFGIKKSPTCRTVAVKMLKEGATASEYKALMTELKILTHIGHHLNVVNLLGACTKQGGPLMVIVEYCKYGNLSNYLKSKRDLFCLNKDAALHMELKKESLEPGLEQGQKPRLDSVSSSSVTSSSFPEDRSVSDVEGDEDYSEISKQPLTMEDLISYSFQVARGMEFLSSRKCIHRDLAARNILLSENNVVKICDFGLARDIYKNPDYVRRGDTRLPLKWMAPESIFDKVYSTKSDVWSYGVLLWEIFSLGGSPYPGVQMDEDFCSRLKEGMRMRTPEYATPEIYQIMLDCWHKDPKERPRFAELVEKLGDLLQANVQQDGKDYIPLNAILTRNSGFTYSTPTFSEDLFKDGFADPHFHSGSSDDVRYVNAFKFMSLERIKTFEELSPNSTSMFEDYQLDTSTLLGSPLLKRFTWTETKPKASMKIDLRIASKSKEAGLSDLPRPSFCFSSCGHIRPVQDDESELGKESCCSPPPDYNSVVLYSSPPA", "UniProt Q9QUI0": "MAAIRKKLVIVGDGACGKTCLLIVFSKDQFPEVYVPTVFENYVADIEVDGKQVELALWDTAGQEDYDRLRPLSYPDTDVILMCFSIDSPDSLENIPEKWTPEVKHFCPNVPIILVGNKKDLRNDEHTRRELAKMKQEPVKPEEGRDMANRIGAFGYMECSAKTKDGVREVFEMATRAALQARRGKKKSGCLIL"},
  "source": "paper doi:10.1101/2025.03.09.642194",
  "note": "Results are given in words; binding and its absence hold for the method and conditions named. Binding seen in cells or lysates may run through a third protein. A yes stands for co-enrichment or nearness to the bait. Other partners may have been found.",
  "data": [
    {"target": "Neuropilin 2 (mouse (endogenous in immortalised mouse lung microvascular ECs)) (UniProt O35375)", "experiment": "affinity purification with mass spectrometry", "conditions": "not given", "values": [
      {"molecule": "Vegfr3 (Flt4) (from UniProt P35917 25-1363) (receptor)", "binding": "binds"},
      {"molecule": "β-catenin (Ctnnb1) (from UniProt Q02248 1-781)", "binding": "binds"},
      {"molecule": "paxillin (Pxn) (from UniProt Q8VI36 1-591)", "binding": "binds"},
      {"molecule": "pyruvate kinase (Pkm) (from UniProt P52480 1-531) (enzyme)", "binding": "binds"},
      {"molecule": "Gipc1 (from UniProt Q9Z0G0 1-333)", "binding": "binds"},
      {"molecule": "PlexinD1 (Plxnd1) (from UniProt Q3UH93 49-1925) (receptor)", "binding": "binds"},
      {"molecule": "focal adhesion kinase (FAK/Ptk2) (from UniProt P34152 1-1052) (enzyme)", "binding": "binds"},
      {"molecule": "Caveolin-1 (Cav1) (from UniProt P49817 1-178)", "binding": "binds"},
      {"molecule": "α catenin (Ctnna1) (from UniProt P26231 1-906)", "binding": "binds"},
      {"molecule": "Vegfr2 (Kdr) (from UniProt P35918 20-1345) (receptor)", "binding": "binds"},
      {"molecule": "Vegr1 (Flt1) (from UniProt P35969 23-1333) (receptor)", "binding": "binds"},
      {"molecule": "RhoA (from UniProt Q9QUI0 1-193)", "binding": "binds"},
      {"molecule": "Vascular endothelial (VE)-cadherin (Cdh5) (protein, UniProt P55284 46-784) DWIWNQMHIDEEKNESLPHYVGKIKSNVNRQNAKYVLQGEFAGKIFGVDANTGNVLAYERLDREKVSEYFLTALIVDKNTNKNLEQPSSFTVKVHDINDNWPVFSHQVFNASVPEMSAIGTSVIRVTAVDADDPTVAGHATVLYQIVKGNEYFSIDNSGLIFTKIKNLDREKQAEYKIVVETQDALGLRGESGTATVMIRLEDINDNFPVFTQSTYTFSVPEDIRVGKPLGFLTVVDPDEPQNRMTKYSIMQGEYRDTFTIETDPKRNEGIIKPTKSLDYEVIQQYTFYIEATDPTIRYEYLSSTSGKNKAMVTINVLDVDEPPVFQRHFYHFKLPENQKKPLIGTVVAKDPDKAQRSIGYSIRKTSDRGQFFRITKQGNIYNEKELDRETYAWYNLTVEANELDSRGNPVGKESIVQVYIEVLDENDNPPEFAQPYEPKVCENAAQGKLVVQISATDKDVVPVNPKFKFALKNEDSNFTLINNHDNTANITVKYGQFNREHAKFHYLPVLISDNGVPSLTGTSTLTVGVCKCNEQGEFTFCEEMAAQAGVSIQALVAIFLCILTITVITLLIILRRRIRKQAHAHSKSALEIHEQLVTYDEEGGGEMDTTSYDVSVLNSVRGGSTKPLRSTMDARPAVYTQVQKPPRLAPGLHGGPREMATMIDVKKEEADNDGGGPPYDTLHIYGYEGAESIAESLSSLSTNSSDSDIDYDFLNDWGPRFKMLAELYGSDPQEELII", "binding": "binds"},
      {"molecule": "platelet and endothelial cell adhesion molecule-1 (Pecam1) (protein, UniProt Q08481 18-727) EENSFTINSIHMESLPSWEVMNGQQLTLECLVDISTTSKSRSQHRVLFYKDDAMVYNVTSREHTESYVIPQARVFHSGKYKCTVMLNNKEKTTIEYEVKVHGVSKPKVTLDKKEVTEGGVVTVNCSLQEEKPPIFFKIEKLEVGTKFVKRRIDKTSNENFVLMEFPIEAQDHVLVFRCQAGILSGFKLQESEPIRSEYVTVQESFSTPKFEIKPPGMIIEGDQLHIRCIVQVTHLVQEFTEIIIQKDKAIVATSKQSSEAVYSVMAMVEYSGHYTCKVESNRISKASSIMVNITELFPKPKLEFSSSRLDQGELLDLSCSVSGTPVANFTIQKEETVLSQYQNFSKIAEESDSGEYSCTAGIGKVVKRSGLVPIQVCEMLSKPSIFHDAKSEIIKGHAIGISCQSENGTAPITYHLMKAKSDFQTLEVTSNDPATFTDKPTRDMEYQCRADNCHSHPAVFSEILRVRVIAPVDEVVISILSSNEVQSGSEMVLRCSVKEGTSPITFQFYKEKEDRPFHQAVVNDTQAFWHNKQASKKQEGQYYCTASNRASSMRTSPRSSTLAVRVFLAPWKKGLIAVVVIGVVIATLIVAAKCYFLRKAKAKQKPVEMSRPAAPLLNSNSEKISEPSVEANSHYGYDDVSGNDAVKPINQNKDPQNMDVEYTEVEVSSLEPHQALGTRATETVYSEIRKVDPNLMENRYSRTEGSLNGT", "binding": "binds"},
      {"molecule": "p120-catenin (Ctnnd1) (protein, UniProt P30999 1-938) MDDSEVESTASILASVKEQEAQFEKLTRALEEERRHVSAQLERVRVSPQDANSLMANGTLTRRHQNGRFVGDADLERQKFSDLKLNGPQDHNHLLYSTIPRMQEPGQIVETYTEEDPEGAMSVVSVETTDDGTTRRTETTVKKVVKTMTTRTVQPVPMGPDGLPVDASAVSNNYIQTLGRDFRKNGNGGPGPYVGQAGTATLPRNFHYPPDGYGRHYEDGYPGGSDNYGSLSRVTRIEERYRPSMEGYRAPSRQDVYGPQPQVRVGGSSVDLHRFHPEPYGLEDDQRSMGYDDLDYGMMSDYGTARRTGTPSDPRRRLRSYEDMIGEEVPPDQYYWAPLAQHERGSLASLDSLRKGMPPPSNWRQPELPEVIAMLGFRLDAVKSNAAAYLQHLCYRNDKVKTDVRKLKGIPILVGLLDHPKKEVHLGACGALKNISFGRDQDNKIAIKNCDGVPALVRLLRKARDMDLTEVITGTLWNLSSHDSIKMEIVDHALHALTDEVIIPHSGWEREPNEDCKPRHIEWESVLTNTAGCLRNVSSERSEARRKLRECDGLVDALIFIVQAEIGQKDSDSKLVENCVCLLRNLSYQVHREIPQAERYQEALPTVANSTGPHAASCFGAKKGKDEWFSRGKKPTEDPANDTVDFPKRTSPARGYELLFQPEVVRIYISLLKESKTPAILEASAGAIQNLCAGRWTYGRYIRSALRQEKALSAIAELLTSEHERVVKAASGALRNLAVDARNKELIGKHAIPNLVKNLPGGQQNSSWNFSEDTVVSILNTINEVIAENLEAAKKLRETQGIEKLVLINKSGNRSEKEVRAAALVLQTIWGYKELRKPLEKEGWKKSDFQVNLNNASRSQSSHSYDDSTLPLIDRNQKSDKKPDREEIPMSNMGSNTKSLDNNYSTLNERGDHNRTLDRSGDLGDMEPLKGAPLMQKI", "binding": "binds"}
    ]},
    {"target": "T1, Neuropilin 2 (mouse (endogenous in immortalised mouse lung microvascular ECs)), O35375", "T1 chain": "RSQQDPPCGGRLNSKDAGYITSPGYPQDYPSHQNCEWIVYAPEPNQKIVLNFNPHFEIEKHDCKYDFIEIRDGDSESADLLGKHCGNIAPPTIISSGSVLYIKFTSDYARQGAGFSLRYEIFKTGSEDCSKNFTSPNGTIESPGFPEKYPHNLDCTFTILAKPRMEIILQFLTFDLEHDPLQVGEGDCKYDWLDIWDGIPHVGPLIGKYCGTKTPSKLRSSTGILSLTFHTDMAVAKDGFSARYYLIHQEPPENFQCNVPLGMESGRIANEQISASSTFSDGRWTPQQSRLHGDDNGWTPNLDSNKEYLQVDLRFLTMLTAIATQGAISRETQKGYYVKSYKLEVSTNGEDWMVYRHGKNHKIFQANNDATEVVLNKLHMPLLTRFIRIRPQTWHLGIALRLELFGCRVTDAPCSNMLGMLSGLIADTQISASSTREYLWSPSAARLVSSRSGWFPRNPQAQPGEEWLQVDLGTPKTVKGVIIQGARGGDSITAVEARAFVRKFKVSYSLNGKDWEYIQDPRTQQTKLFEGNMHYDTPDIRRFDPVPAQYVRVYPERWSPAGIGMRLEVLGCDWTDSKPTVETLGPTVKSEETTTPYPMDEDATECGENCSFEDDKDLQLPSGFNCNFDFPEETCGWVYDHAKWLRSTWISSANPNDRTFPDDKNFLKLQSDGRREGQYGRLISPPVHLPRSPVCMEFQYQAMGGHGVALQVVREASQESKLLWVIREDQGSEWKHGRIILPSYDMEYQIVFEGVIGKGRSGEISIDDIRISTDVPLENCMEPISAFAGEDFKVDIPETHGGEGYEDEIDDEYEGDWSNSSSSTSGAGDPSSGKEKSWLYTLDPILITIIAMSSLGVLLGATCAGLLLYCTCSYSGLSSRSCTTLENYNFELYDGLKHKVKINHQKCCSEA", "experiment": "affinity purification with mass spectrometry", "conditions": "remark: other sources report otherwise", "values": [
      {"molecule": "Nrp1, P97333 22-923 (receptor) FRSDKCGGTIKIENPGYLTSPGYPHSYHPSEKCEWLIQAPEPYQRIMINFNPHFDLEDRDCKYDYVEVIDGENEGGRLWGKFCGKIAPSPVVSSGPFLFIKFVSDYETHGAGFSIRYEIFKRGPECSQNYTAPTGVIKSPGFPEKYPNSLECTYIIFAPKMSEIILEFESFDLEQDSNPPGGMFCRYDRLEIWDGFPEVGPHIGRYCGQKTPGRIRSSSGVLSMVFYTDSAIAKEGFSANYSVLQSSISEDFKCMEALGMESGEIHSDQITASSQYGTNWSVERSRLNYPENGWTPGEDSYKEWIQVDLGLLRFVTAVGTQGAISKETKKKYYVKTYRVDISSNGEDWISLKEGNKAIIFQGNTNPTDVVLGVFSKPLITRFVRIKPVSWETGISMRFEVYGCKITDYPCSGMLGMVSGLISDSQITASNQADRNWMPENIRLVTSRTGWALPPSPHPYTNEWLQVDLGDEKIVRGVIIQGGKHRENKVFMRKFKIAYSNNGSDWKTIMDDSKRKAKSFEGNNNYDTPELRTFSPLSTRFIRIYPERATHSGLGLRMELLGCEVEAPTAGPTTPNGNPVDECDDDQANCHSGTGDDFQLTGGTTVLATEKPTIIDSTIQSEFPTYGFNCEFGWGSHKTFCHWEHDSHAQLRWSVLTSKTGPIQDHTGDGNFIYSQADENQKGKVARLVSPVVYSQSSAHCMTFWYHMSGSHVGTLRVKLRYQKPEEYDQLVWMVVGHQGDHWKEGRVLLHKSLKLYQVIFEGEIGKGNLGGIAVDDISINNHISQEDCAKPTDLDKKNTEIKIDETGSTPGYEGEGEGDKNISRKPGNVLKTLDPILITIIAMSALGVLLGAVCGVVLYCACWHNGMSERNLSALENYNFELVDGVKLKKDKLNPQSNYSEA", "binding": "binds"}
    ]}
  ]
}
